Data from paper doi:10.1101/2022.05.09.491192.
Results are given in words; binding and its absence hold for the method and conditions named. In cells and extracts the contact can be indirect. Some binding calls cover weakened binding; strength is not graded here.

By UniProt entry, the sequences of proteins in these tests, tags left out.
UniProt Q62441: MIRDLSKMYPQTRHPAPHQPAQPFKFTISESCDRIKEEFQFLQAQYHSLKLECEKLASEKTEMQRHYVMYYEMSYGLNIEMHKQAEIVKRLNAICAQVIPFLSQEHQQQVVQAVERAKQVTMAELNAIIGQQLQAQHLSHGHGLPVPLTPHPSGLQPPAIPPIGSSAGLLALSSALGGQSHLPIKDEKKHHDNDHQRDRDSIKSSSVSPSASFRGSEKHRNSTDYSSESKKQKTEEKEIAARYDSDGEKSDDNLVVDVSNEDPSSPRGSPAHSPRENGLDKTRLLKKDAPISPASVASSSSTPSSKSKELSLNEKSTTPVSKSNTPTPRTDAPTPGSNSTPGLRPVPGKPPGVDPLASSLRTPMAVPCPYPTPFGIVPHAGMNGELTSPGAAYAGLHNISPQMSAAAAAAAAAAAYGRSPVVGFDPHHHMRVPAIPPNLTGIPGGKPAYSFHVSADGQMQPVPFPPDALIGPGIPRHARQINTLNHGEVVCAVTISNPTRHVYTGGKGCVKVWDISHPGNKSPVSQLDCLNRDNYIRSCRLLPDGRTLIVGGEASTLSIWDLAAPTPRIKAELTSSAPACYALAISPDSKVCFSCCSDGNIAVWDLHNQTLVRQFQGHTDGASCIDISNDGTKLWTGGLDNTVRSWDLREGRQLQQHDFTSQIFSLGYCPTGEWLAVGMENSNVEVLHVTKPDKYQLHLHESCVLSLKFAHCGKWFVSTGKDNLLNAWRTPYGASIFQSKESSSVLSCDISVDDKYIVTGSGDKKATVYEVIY
UniProt Q9ESP5: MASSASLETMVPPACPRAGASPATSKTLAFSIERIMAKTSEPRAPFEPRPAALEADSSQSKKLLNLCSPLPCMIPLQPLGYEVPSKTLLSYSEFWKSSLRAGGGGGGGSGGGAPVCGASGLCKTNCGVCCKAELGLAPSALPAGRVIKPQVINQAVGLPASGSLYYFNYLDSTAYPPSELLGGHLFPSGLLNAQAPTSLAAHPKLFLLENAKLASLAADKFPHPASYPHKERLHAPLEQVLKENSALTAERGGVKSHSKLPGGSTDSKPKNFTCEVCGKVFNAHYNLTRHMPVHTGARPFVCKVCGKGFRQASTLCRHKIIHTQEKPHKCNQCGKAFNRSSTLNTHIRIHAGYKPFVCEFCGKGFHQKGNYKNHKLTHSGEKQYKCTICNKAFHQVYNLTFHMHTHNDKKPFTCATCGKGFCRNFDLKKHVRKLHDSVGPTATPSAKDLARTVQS

Target: full-length Flag-TLE4 (UniProt Q62441)
Assay: co-IP

binding: binds
Substance: HA-FEZF2 (from UniProt Q9ESP5 1-455)
